Measurements from PMC5296650.
These are yes or no findings as the source states them, for the method shown. In cells and extracts the contact can be indirect.

The chains behind the UniProt entries cited, without tags or fusion partners. Where a name states a change or a piece, a line headed by the entry shows the natural chain unless it says otherwise.
UniProt Q6PHZ2: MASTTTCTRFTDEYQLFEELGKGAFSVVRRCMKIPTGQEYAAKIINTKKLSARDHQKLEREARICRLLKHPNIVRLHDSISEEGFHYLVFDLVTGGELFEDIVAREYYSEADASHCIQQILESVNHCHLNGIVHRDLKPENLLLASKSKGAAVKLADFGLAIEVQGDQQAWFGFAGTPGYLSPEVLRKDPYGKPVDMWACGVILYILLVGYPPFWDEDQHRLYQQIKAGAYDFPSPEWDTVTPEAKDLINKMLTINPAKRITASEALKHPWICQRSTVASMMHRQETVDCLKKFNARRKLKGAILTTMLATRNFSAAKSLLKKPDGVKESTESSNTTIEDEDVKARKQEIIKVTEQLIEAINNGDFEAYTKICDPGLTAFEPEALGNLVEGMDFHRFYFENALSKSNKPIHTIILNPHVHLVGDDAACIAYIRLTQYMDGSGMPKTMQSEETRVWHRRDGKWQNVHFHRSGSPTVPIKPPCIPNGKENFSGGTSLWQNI
UniProt Q01815: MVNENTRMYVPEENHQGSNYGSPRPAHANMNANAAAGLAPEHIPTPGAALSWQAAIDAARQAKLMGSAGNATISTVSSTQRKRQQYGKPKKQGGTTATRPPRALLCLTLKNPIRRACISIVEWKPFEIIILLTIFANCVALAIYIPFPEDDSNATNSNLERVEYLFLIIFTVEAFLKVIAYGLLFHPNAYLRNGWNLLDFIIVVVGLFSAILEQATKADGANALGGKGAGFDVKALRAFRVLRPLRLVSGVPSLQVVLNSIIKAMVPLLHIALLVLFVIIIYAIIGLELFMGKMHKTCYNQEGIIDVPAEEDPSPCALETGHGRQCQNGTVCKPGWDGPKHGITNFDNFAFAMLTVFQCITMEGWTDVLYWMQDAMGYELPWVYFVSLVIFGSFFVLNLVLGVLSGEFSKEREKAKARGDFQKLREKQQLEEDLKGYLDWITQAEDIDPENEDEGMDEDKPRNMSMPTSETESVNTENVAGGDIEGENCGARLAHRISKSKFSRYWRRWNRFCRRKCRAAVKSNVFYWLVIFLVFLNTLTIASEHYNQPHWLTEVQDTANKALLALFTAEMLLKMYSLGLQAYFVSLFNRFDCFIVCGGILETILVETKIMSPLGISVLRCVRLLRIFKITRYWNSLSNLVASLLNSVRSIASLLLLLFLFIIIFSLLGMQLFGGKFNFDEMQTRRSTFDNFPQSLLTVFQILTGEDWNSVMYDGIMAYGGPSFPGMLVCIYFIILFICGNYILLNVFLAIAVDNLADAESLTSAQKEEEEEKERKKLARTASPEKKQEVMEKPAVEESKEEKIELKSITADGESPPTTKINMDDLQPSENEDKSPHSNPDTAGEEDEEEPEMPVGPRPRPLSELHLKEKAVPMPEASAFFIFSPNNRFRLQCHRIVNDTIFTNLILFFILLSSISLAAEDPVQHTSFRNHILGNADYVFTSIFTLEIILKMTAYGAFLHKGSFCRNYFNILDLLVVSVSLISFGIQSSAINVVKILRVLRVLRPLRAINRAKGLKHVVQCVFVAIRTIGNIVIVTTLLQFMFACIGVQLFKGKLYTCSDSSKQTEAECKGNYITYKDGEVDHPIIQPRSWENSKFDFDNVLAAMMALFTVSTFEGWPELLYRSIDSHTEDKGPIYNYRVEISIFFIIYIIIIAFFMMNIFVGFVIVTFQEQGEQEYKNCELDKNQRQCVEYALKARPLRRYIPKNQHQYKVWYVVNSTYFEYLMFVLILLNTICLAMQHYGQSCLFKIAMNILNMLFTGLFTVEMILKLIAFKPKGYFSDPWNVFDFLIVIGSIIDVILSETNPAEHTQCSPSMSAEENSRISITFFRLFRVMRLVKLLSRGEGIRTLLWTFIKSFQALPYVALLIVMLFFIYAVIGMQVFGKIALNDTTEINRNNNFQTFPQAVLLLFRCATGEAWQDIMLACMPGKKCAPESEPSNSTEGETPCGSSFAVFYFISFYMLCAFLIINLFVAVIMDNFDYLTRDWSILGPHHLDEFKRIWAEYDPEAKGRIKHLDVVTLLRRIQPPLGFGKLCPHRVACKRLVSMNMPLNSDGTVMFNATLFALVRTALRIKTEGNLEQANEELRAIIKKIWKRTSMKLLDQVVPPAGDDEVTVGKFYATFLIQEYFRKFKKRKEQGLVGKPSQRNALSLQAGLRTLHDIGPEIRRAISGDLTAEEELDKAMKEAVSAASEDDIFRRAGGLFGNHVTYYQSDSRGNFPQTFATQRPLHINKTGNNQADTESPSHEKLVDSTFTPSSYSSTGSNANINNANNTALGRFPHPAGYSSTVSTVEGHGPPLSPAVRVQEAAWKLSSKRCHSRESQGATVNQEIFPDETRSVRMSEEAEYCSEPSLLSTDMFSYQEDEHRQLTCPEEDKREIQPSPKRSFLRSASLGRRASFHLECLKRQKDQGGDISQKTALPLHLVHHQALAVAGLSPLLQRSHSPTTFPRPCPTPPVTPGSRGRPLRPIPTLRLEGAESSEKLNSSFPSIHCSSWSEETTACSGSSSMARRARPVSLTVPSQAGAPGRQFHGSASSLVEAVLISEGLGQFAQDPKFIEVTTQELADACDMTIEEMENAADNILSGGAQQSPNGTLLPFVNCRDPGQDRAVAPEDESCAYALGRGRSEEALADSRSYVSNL
UniProt Q91YI4: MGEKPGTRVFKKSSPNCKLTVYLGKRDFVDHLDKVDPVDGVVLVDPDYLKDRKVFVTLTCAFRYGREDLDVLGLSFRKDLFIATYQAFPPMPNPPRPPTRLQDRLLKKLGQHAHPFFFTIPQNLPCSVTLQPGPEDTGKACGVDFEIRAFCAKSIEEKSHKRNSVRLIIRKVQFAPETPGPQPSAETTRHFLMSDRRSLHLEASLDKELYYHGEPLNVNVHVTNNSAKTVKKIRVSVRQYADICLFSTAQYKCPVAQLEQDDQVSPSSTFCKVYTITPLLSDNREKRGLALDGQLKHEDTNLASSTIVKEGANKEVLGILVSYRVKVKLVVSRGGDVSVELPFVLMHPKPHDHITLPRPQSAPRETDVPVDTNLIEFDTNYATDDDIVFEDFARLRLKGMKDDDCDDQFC

Legend:
[1] = target: CaMKIIδ, endogenous in mouse pancreatic islets (mouse (endogenous in pancreatic islets)) (UniProt Q6PHZ2); assay: co-IP; lysate of ∼1,000 wt mouse pancreatic islets (20 mM Tris-HCl pH 8.0, 137 mM NaCl, 2 mM EDTA, 1% Nonidet P-40); precipitated overnight at 4 °C with anti-CaMKIIδ antibody or goat IgG, protein A/G agarose; blots with anti-barr2, anti-CaMKII (pan) and anti-CaV1.2 (α1) antibodies
[2] = target: CaV1.2 (α1-subunit), endogenous in mouse pancreatic islets (mouse (endogenous in pancreatic islets)) (UniProt Q01815); assay: as above

Substance: CaV1.2 (α1-subunit), endogenous in mouse pancreatic islets (from UniProt Q01815 1-2139)
- binding [1]: no binding

Substance: β-arrestin-2 (barr2), endogenous in mouse pancreatic islets (from UniProt Q91YI4 1-410)
- binding [2]: no binding
